The name of at least one read-out is uncertain.
Tested on: KG1a cell line
Experiment: In vitro apoptosis (Annexin V/propidium iodide) LD50 in KG1a cells
Assay type: cell-based, human
Details: 72 h

Substance: gemcitabine-[phenyl-benzoxy-L-alaninyl)]-phosphate [NUC-1031]
- in vitro potency (LD50) compared to Gemcitabine: increased in vitro potency

From US20230226092A1, “CANCER […] ON G[…]” (NuCana plc, priority 2015, published 2023)
